Our source for the binding values is patent US20110262445A1.

Chains of the proteins cited; added tags and fusions are not shown. Lines headed by an entry give the natural chain unless they say otherwise; changes in a name come on top.
UniProt P29460: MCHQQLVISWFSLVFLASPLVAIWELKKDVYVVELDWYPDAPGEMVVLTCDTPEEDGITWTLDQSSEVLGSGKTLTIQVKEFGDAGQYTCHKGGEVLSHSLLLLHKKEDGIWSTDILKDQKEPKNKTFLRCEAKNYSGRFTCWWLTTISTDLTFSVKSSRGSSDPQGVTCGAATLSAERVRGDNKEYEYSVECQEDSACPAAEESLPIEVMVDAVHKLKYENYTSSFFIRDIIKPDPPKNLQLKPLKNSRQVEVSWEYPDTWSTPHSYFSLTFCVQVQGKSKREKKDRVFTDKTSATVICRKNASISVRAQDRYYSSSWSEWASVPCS
UniProt Q9NPF7: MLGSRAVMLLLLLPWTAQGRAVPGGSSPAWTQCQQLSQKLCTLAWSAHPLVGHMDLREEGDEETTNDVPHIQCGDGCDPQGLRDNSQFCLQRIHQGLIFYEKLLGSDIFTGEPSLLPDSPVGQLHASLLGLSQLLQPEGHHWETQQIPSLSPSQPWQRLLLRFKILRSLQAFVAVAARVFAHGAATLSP

Results are given in words; binding and its absence hold for the method and conditions named. Some entries that bind do so weakly or less than the wild type.

The target in experiment [1] is human IL-12 (human) (UniProt P29460). Kind of experiment: ELISA, coated IL-12.
Experiment [2] deals with human IL-23 (human) (UniProt P29460). Briefly: ELISA, coated IL-23.
The target is the same in experiment [3]. Kind of experiment: ELISA.
Experiment [4] concerns the target human IL-12 (human) (UniProt P29460). Kind of experiment: ELISA.
In experiment [5] the target is IL-23 bound to IL-12Rβ1 on the surface of transfected cells (human) (UniProt P29460+Q9NPF7+P42701). Kind of experiment: flow cytometry: antibody added to IL-23 prebound to IL-12Rβ1 Jurkat cells, anti-human IgG-FITC.

B1: Antibody 111 (antibody, human IgG1, kappa, V domains shown)
VH: EVQLVQSGAEVKKPGATVKISCKASGYTFSDYYLHWVRQAPGKGLEWMGWIDPENGDTEYAPKFQGRVTITADTSTDTGYLELSSLRSEDTAVYYCAANKELRYFDVWGQGTLVTVSS
VL: DIQMTQSPSSVSASVGDRVTITCRASQSISINLHWYQQKPGKAPKLLIYFASQSISGVPSRFSGSGSGTDFSLTINSLQPEDFARYYCQQSNSFPLTFGGGTKVEIKR
With B1, the binding result in the experiment with human IL-12 (human) [1] and in the experiment with human IL-23 (human) [2] was “binds” each time.

B2: Antibody 190 (antibody, human IgG1, kappa, V domains shown)
VH: QVQLVQSGAEVKKPGASVKVSCKASGYTFTDYYLHWVRQAPGQGLEWMGWIDPENGDTEYAPKFQGRVTMTTDTSTSTAYMELRSLRSDDTAVYYCNANKELRYFDVWGQGTMVTVSS
VL: DIQMTQSPSSVSASVGDRVTITCRASQSISINLHWYQQKPGKAPKLLIYFASQSISGVPSRFSGSGSGTDFSLTINSLQTEDFATYYCQQSNSFPLTFGGGTKVEIKR
As to B2, the binding result in the experiment with human IL-12 (human) [1] and with human IL-23 (human) [2] was “binds” in each case.

B3: Antibody 43 (antibody, human IgG1, kappa, V domains shown)
VH: QVQLVQSGAEVKKPGASVKVSCKVSGYTLTDYYMHWVRQAPGKGLEWMGWIDPENGDTEYAPKFQGRVTMTEDTSTDTAYMELSSLRSEDTAVYYCATCKELRYFDVWGQGTMVTVSS
VL: EIVMTQSPATLSVSPGERATLSCRASQSISINLHWYQQKPGQAPRLLIYFASQSISGIPARFSGSGSGTEFTLTISSLQSEDFAVYYCQQSNSWPLTFGGGTKVEIKR
For B3, the binding entry in the experiment with human IL-23 (human) [3], with human IL-12 (human) [4], with human IL-12 (human) [1] and with human IL-23 (human) [2] was “binds” throughout.

B4: Antibody 46 (antibody, human IgG1, kappa, V domains shown)
VH: QVQLVQSGAEVKKPGASVKVSCKASGYTFTDYYMHWVRQAPGQGLEWMGWIDPENGDTEYAPKFQGRVTMTTDTSTSTAYMELRSLRSDDTAVYYCARCKELRYFDVWGQGTMVTVSS
VL: EIVLTQSPATLSLSPGERATLSCRASQSISINLHWYQQKPGQAPRLLIYFASQSISGIPARFSGSGSGTDFTLTISSLEPEDFAVYYCQQSNSWPLTFGGGTKVEIKR
For the molecule B4, the binding result with human IL-23 (human) [3], with human IL-12 (human) [4], with human IL-12 (human) [1] and with human IL-23 (human) [2] was “binds” throughout.

B5: Antibody 1 (antibody, human IgG1, kappa, V domains shown)
VH: EVQLQQSGADLVRSGASIKLSCTASGFNIKDYYMHWVKQRPEQGLEWIGWIDPENGDTEYAPKFQGKATMTADTSSNTAYLQLSSLTSEDTAVYYCNACKELRYFDVWGAGTTVTVSS
VL: DIVLTQSPATLSVTPGDSVSLSCRASQSISINLHWYQQKSHESPRLLIKFASQSISGIPSRFSGYGSGTDFTLSINSVETEDFGRYFCQQSNSWPLTFGAGTKLELKR
In the case of B5, the binding entry in experiment [5] was “binds”.
